Test results as given in ChEMBL document CHEMBL3085714 (J Med Chem, 2013).
The source gives many values for each of these; only a part stands here.

Columns and labels:
Homo sapiens [1] = species on record: Homo sapiens; test: Selectivity for p38alpha MAP kinase (unknown origin) over YES (unknown origin)
Homo sapiens [2] = species on record: Homo sapiens; test: Selectivity for p38alpha MAP kinase (unknown origin) over WNK3 (unknown origin)
Homo sapiens [3] = species on record: Homo sapiens; test: Selectivity for p38alpha MAP kinase (unknown origin) over TYK2 (unknown origin)
Homo sapiens [4] = species on record: Homo sapiens; test: Selectivity for p38alpha MAP kinase (unknown origin) over TYRO3 (unknown origin)
Homo sapiens [5] = species on record: Homo sapiens; test: Selectivity for p38alpha MAP kinase (unknown origin) over TSSK1 (unknown origin)
Homo sapiens [6] = species on record: Homo sapiens; test: Selectivity for p38alpha MAP kinase (unknown origin) over CDK9/CycK (unknown origin)
Homo sapiens [7] = species on record: Homo sapiens; test: Selectivity for p38alpha MAP kinase (unknown origin) over CDK5/p25NCK (unknown origin)
Homo sapiens [8] = species on record: Homo sapiens; test: Selectivity for p38alpha MAP kinase (unknown origin) over CDK4/CycD1 (unknown origin)
Homo sapiens [9] = species on record: Homo sapiens; test: Selectivity for p38alpha MAP kinase (unknown origin) over CDK2/CycE (unknown origin)
Homo sapiens [10] = species on record: Homo sapiens; test: Selectivity for p38alpha MAP kinase (unknown origin) over CDK2/CycA (unknown origin)
Homo sapiens [11] = species on record: Homo sapiens; test: Selectivity for p38alpha MAP kinase (unknown origin) over CDC42BPA (unknown origin)
Homo sapiens [12] = species on record: Homo sapiens; test: Selectivity for p38alpha MAP kinase (unknown origin) over CAMKK1 (unknown origin)
Homo sapiens [13] = species on record: Homo sapiens; test: Selectivity for p38alpha MAP kinase (unknown origin) over CAMK4 (unknown origin)
Homo sapiens [14] = species on record: Homo sapiens; test: Selectivity for p38alpha MAP kinase (unknown origin) over wild-type B-RAF (unknown origin)
Homo sapiens [15] = species on record: Homo sapiens; test: Selectivity for p38alpha MAP kinase (unknown origin) over Aurora-C (unknown origin)
Homo sapiens [16] = species on record: Homo sapiens; test: Selectivity for p38alpha MAP kinase (unknown origin) over AKT3 (unknown origin)
Homo sapiens [17] = species on record: Homo sapiens; test: Selectivity for p38alpha MAP kinase (unknown origin) over ABL1 F317l mutant (unknown origin)
Homo sapiens [18] = species on record: Homo sapiens; test: Selectivity for p38alpha MAP kinase (unknown origin) over PKC-mu (unknown origin)
Homo sapiens [19] = species on record: Homo sapiens; test: Selectivity for p38alpha MAP kinase (unknown origin) over PKC-epsilon (unknown origin)
Homo sapiens [20] = species on record: Homo sapiens; test: Selectivity for p38alpha MAP kinase (unknown origin) over PKC-delta (unknown origin)
Homo sapiens [21] = species on record: Homo sapiens; test: Selectivity for p38alpha MAP kinase (unknown origin) over PKC-alpha (unknown origin)
Homo sapiens [22] = species on record: Homo sapiens; test: Selectivity for p38alpha MAP kinase (unknown origin) over PIM2 (unknown origin)
Homo sapiens [23] = species on record: Homo sapiens; test: Selectivity for p38alpha MAP kinase (unknown origin) over PHKG1 (unknown origin)
Homo sapiens [24] = species on record: Homo sapiens; test: Selectivity for p38alpha MAP kinase (unknown origin) over wild type PDGFR-alpha (unknown origin)
Homo sapiens [25] = species on record: Homo sapiens; test: Selectivity for p38alpha MAP kinase (unknown origin) over PAK4 (unknown origin)
Homo sapiens [26] = species on record: Homo sapiens; test: Selectivity for p38alpha MAP kinase (unknown origin) over PAK3 (unknown origin)
Homo sapiens [27] = species on record: Homo sapiens; test: Selectivity for p38alpha MAP kinase (unknown origin) over NLK (unknown origin)
Homo sapiens [28] = species on record: Homo sapiens; test: Selectivity for p38alpha MAP kinase (unknown origin) over NEK7 (unknown origin)
Homo sapiens [29] = species on record: Homo sapiens; test: Selectivity for p38alpha MAP kinase (unknown origin) over MYLK3 (unknown origin)
Homo sapiens [30] = species on record: Homo sapiens; test: Selectivity for p38alpha MAP kinase (unknown origin) over MYLK (unknown origin)
Homo sapiens [31] = species on record: Homo sapiens; test: Selectivity for p38alpha MAP kinase (unknown origin) over MST1 (unknown origin)
Homo sapiens [32] = species on record: Homo sapiens; test: Selectivity for p38alpha MAP kinase (unknown origin) over MKNK1 (unknown origin)
Homo sapiens [33] = species on record: Homo sapiens; test: Selectivity for p38alpha MAP kinase (unknown origin) over MET D1228N mutant (unknown origin)
Homo sapiens [34] = species on record: Homo sapiens; test: Selectivity for p38alpha MAP kinase (unknown origin) over MELK (unknown origin)
Homo sapiens [35] = species on record: Homo sapiens; test: Selectivity for p38alpha MAP kinase (unknown origin) over MARK4 (unknown origin)
Homo sapiens [36] = species on record: Homo sapiens; test: Selectivity for p38alpha MAP kinase (unknown origin) over MAPKAPK3 (unknown origin)
Homo sapiens [37] = species on record: Homo sapiens; test: Selectivity for p38alpha MAP kinase (unknown origin) over MAP4K5 (unknown origin)
Homo sapiens [38] = species on record: Homo sapiens; test: Selectivity for p38alpha MAP kinase (unknown origin) over LYN (unknown origin)
Homo sapiens [39] = species on record: Homo sapiens; test: Selectivity for p38alpha MAP kinase (unknown origin) over LIMK2 (unknown origin)
Homo sapiens [40] = species on record: Homo sapiens; test: Selectivity for p38alpha MAP kinase (unknown origin) over LIMK1 (unknown origin)
Homo sapiens [41] = species on record: Homo sapiens; test: Selectivity for p38alpha MAP kinase (unknown origin) over JNK1 (unknown origin)
Homo sapiens [42] = species on record: Homo sapiens; test: Selectivity for p38alpha MAP kinase (unknown origin) over ITK (unknown origin)
Homo sapiens [43] = species on record: Homo sapiens; test: Selectivity for p38alpha MAP kinase (unknown origin) over INSR (unknown origin)
Homo sapiens [44] = species on record: Homo sapiens; test: Selectivity for p38alpha MAP kinase (unknown origin) over GRK6 (unknown origin)
Homo sapiens [45] = species on record: Homo sapiens; test: Selectivity for p38alpha MAP kinase (unknown origin) over GRK3 (unknown origin)
Homo sapiens [46] = species on record: Homo sapiens; test: Selectivity for p38alpha MAP kinase (unknown origin) over HIPK3 (unknown origin)
Homo sapiens [47] = species on record: Homo sapiens; test: Selectivity for p38alpha MAP kinase (unknown origin) over FYN (unknown origin)
Homo sapiens [48] = species on record: Homo sapiens; test: Selectivity for p38alpha MAP kinase (unknown origin) over wild type FGFR3 (unknown origin)
Homo sapiens [49] = species on record: Homo sapiens; test: Selectivity for p38alpha MAP kinase (unknown origin) over FAK (unknown origin)
Homo sapiens [50] = species on record: Homo sapiens; test: Selectivity for p38alpha MAP kinase (unknown origin) over ERBB2 (unknown origin)
Homo sapiens [51] = species on record: Homo sapiens; test: Selectivity for p38alpha MAP kinase (unknown origin) over EPHB3 (unknown origin)
Homo sapiens [52] = species on record: Homo sapiens; test: Selectivity for p38alpha MAP kinase (unknown origin) over EPHA4 (unknown origin)
Homo sapiens [53] = species on record: Homo sapiens; test: Selectivity for p38alpha MAP kinase (unknown origin) over EIF2AK2 (unknown origin)
Homo sapiens [54] = species on record: Homo sapiens; test: Selectivity for p38alpha MAP kinase (unknown origin) over wild-type EGFR (unknown origin)
Homo sapiens [55] = species on record: Homo sapiens; test: Selectivity for p38alpha MAP kinase (unknown origin) over EGFR L861Q mutant (unknown origin)
Homo sapiens [56] = species on record: Homo sapiens; test: Selectivity for p38alpha MAP kinase (unknown origin) over EGFR L858R mutant (unknown origin)
Homo sapiens [57] = species on record: Homo sapiens; test: Selectivity for p38alpha MAP kinase (unknown origin) over EGFR 747 to 749 deletion/A750P mutant (unknown origin)
Homo sapiens [58] = species on record: Homo sapiens; test: Selectivity for p38alpha MAP kinase (unknown origin) over EEF2K (unknown origin)
Homo sapiens [59] = species on record: Homo sapiens; test: Selectivity for p38alpha MAP kinase (unknown origin) over DYRK1A (unknown origin)
Homo sapiens [60] = species on record: Homo sapiens; test: Selectivity for p38alpha MAP kinase (unknown origin) over DCAMKL2 (unknown origin)
Homo sapiens [61] = species on record: Homo sapiens; test: Selectivity for p38alpha MAP kinase (unknown origin) over DAPK3 (unknown origin)
Homo sapiens [62] = species on record: Homo sapiens; test: Selectivity for p38alpha MAP kinase (unknown origin) over CLK3 (unknown origin)
Homo sapiens [63] = species on record: Homo sapiens; test: Selectivity for p38alpha MAP kinase (unknown origin) over CK2-alpha1 (unknown origin)
Homo sapiens [64] = species on record: Homo sapiens; test: Selectivity for p38alpha MAP kinase (unknown origin) over CK1-delta (unknown origin)

Measured: Selectivity ratio

Cc1cc(F)c(NC(=O)c2ccsc2)cc1Nc1ccc2c(c1)OCc1ccc(OC[C@H](O)CO)cc1C2=O
> 1000: all assays above
